Measurements: patent US20250049037A1, “HERBICIDAL ACTIVITY OF ALKYL PHOSPHINATES” (priority 2021, published 2025)
Some entries share one result that the patent states for a list of compounds. At least one structure is not confirmed: it was looked up by name or label, or the drawing left a doubt. Some compounds share one range, which may span the group rather than tell each member.

Tests used:
Assay type in all cases: in vivo
Setaria viridis (SETVI) = experiment: Greenhouse herbicidal test, post-emergence; details: postemergence, application rate 5 kg/ha, scale 0 to 100
From the text: (§1) The culture containers used were plastic flowerpots containing loamy sand with approximately 3.0% of humus as the substrate. The seeds of the test plants were sown separately for each species.
(§2) For the post-emergence treatment, the test plants were first grown to a height of 2 to 15 cm, depending on the plant habit, and only then treated with the active ingredients which had been suspended or emulsified in water. For this purpose, the test plants were either sown directly and grown in the same containers, or they were first grown separately as seedlings and transplanted into the test containers a few days prior to treatment.
(§3) Depending on the species, the test plants were kept at 10-25° C. or 20-35° C., respectively.
(§4) The test period extended over 2 to 4 weeks. During this time, the test plants were tended, and their response to the individual treatments was evaluated.
(§5) Evaluation was carried out using a scale from 0 to 100. 100 means no emergence of the test plants, or complete destruction of at least the aerial moieties, and 0 means no damage, or normal course of growth. A moderate herbicidal activity is given at values of 40 to 59, good herbicidal activity is given at values of more than 59 to 80 and a very good herbicidal activity is given at values of more than 80 to 100.

Setaria faberi (SETFA) = experiment: Greenhouse herbicidal test, pre-emergence; details: application rate 5 kg/ha, scale 0 to 100
[1] = system: Abutilon theophrasti (ABUTH); experiment: Greenhouse herbicidal test, pre-emergence; details: application rate 5 kg/ha, scale 0 to 100
[2] = system: Echinocloa crus-galli (ECHCG); experiment: Greenhouse herbicidal test, post-emergence; details: postemergence, application rate 5 kg/ha, scale 0 to 100
From the text: as §1, §2, §3, §4, §5

| Structure (SMILES) | herbicidal activity against SETVI (Setaria viridis (SETVI)) | herbicidal activity against SETFA (Setaria faberi (SETFA)) | herbicidal activity against ABUTH [1] | herbicidal activity against ECHCG [2] |
| --- | --- | --- | --- | --- |
| CP(=O)(O)CC[C@H]1NC(=O)NC1=O [Compound d] | moderate (A moderate herbicidal activity is given at values of 40 to 59) | good (good herbicidal activity is given at values of more than 59 to 80) | moderate (A moderate herbicidal activity is given at values of 40 to 59) |  |
| CP(=O)(O)CCC(NC(N)=O)C(=O)O (stereo not drawn) [Compound a] |  |  | moderate (A moderate herbicidal activity is given at values of 40 to 59) |  |
| CP(=O)(O)CC[C@@H](NC(N)=O)C(=O)O [Compound b] | moderate (A moderate herbicidal activity is given at values of 40 to 59) |  |  | moderate (A moderate herbicidal activity is given at values of 40 to 59) |
